Our source for the crude yield values is EP1621546B1 (Tecnogen S.p.A., priority 2004, dated 2008).

The data set can be described thus: general procedure: Fmoc solid-phase peptide synthesis; polystyrene-1% divinylbenzene, 100-200 mesh, derivatized with p-benzyloxy-benzyl group (substitution 0.75 meq/g), Novabi; HOBt/HBTU. The following applies: whole synthesis, calculated from the micromols of Fmoc splitted from the N-terminal cysteines, scale 100 µmol, one disulfide bridge, sequence written open.

Take “(NH2-L-Cys-L-Tyr-L-His-L-His)2-L-Lys-L-Gly-OH”: the crude yield is 93.5%.
